{"sequences": {"note": "Protein sequences, listed by entry. Tags and fused reporters are not part of them.", "UniProt P30051": "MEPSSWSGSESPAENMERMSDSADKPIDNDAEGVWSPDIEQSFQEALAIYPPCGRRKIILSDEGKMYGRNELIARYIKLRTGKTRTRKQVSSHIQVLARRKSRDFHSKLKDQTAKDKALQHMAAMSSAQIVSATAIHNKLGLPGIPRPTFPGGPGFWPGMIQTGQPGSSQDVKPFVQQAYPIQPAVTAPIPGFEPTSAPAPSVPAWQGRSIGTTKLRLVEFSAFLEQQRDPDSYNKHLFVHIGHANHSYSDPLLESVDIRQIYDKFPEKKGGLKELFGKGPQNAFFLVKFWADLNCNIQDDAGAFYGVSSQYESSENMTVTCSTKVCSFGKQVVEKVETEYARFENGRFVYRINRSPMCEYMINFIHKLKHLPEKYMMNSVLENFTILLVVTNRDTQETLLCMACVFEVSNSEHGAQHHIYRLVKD", "UniProt P46938": "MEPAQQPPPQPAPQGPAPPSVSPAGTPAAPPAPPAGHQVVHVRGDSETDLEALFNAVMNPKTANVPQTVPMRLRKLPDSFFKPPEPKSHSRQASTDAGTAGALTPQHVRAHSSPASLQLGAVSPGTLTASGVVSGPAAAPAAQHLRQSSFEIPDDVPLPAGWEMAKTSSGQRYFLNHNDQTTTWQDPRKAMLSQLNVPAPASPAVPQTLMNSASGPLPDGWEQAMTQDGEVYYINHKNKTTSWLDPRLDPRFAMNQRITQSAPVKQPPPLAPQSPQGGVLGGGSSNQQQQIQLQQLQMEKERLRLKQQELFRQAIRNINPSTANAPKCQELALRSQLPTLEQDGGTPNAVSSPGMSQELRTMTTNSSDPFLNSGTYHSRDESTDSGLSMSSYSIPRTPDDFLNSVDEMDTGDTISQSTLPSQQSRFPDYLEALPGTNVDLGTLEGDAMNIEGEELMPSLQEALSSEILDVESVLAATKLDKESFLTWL"}, "source": "paper PMC9496954", "key": {"[1]": {"target": "TEAD1 (mouse (endogenous in adult mouse heart)) (UniProt P30051)", "assay": "co-IP; TEAD1 precipitated with mouse-origin TEAD1 antibody (BD, 610923) from adult heart lysate of Vgll4 fl/fl and Vgll4 cKO (Myh6-Cre; Vgll4 fl/fl) mice; immunoblot of the precipitate"}, "[2]": {"target": "TEAD1 (mouse (endogenous in adult mouse heart)) (UniProt P30051)", "assay": "condition: only in control Vgll4 fl/fl hearts (VGLL4 present); co-IP; TEAD1 precipitated with mouse-origin TEAD1 antibody (BD, 610923) from adult heart lysate of control Vgll4 fl/fl mice (VGLL4 present in cardiomyocytes); immunoblot for YAP"}}, "note": "No constants are given. Whether binding was seen depends on the method and setting. Binding seen in cells or lysates may run through a third protein. Some entries that bind do so weakly or less than the wild type.", "data": [{"molecule": "YAP (from UniProt P46938 1-488)", "values": [{"measurement": "binding", "setting": "[1]", "result": "binds"}, {"measurement": "binding", "setting": "[2]", "result": "no binding"}]}, {"molecule": "Vestigial-like 4 (VGLL4) (protein, UniProt Q80V24 1-287) MLFMKMDLLNYQYLDKMNNNIGVLCYEGEASLRGEPRMQTLPVASALSSHRTGPPPISPSKRKFSMEPGDKDLDCENDHVSKMSRIFSPHLNKTVNGDCRRDPRERSRSPIERAAAPAVSLHGGHLYASLPSLMEQPLALTKNSSDTGRSAVERQQNRPSVITCASAGARNCNLSHCPIAHSGCSAPGSASYRRPPSATATCDPVVEEHFRRSLGKNYKEPEPAPNSVSITGSVDDHFAKALGDTWLQIKAAKDSASSSPESASRRGQPASPTAHMVSHSHSPSVVS", "values": [{"measurement": "binding", "setting": "[1]", "result": "binds"}]}]}
